Experimental data reported in PMC6148290, “Endogenous metabolites of vitamin E limit inflammation by targeting 5-lipoxygenase” (Nature Communications, 2018).
Results are given in words; binding and its absence hold for the method and conditions named. Binding seen in cells or lysates may run through a third protein. Some binding calls cover weakened binding; strength is not graded here.

Molecular target: T1, 5-LO-activating protein (human (endogenous in monocytes)) (UniProt P20292)
T1 sequence: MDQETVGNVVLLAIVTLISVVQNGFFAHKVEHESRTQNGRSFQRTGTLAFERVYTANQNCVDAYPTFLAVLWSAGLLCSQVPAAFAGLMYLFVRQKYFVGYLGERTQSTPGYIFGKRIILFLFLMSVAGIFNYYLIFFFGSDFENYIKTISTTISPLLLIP
Assay: proximity ligation; in situ in human monocytes on coverslips; pre-incubated with vehicle (0.1% DMSO), 3 µM α-T-13′-COOH (4a) or δ-TE-13′-COOH (4h) for 15 min at 37 °C, stimulated with A23187 ([…], 10 min, 37 °C), fixed with paraformaldehyde, permeabilised with acetone; antibodies against 5-LO and FLAP; signal possible when the two are <40 nm apart

B1: 5-lipoxygenase (enzyme, UniProt P09917 1-674)
chain: MPSYTVTVATGSQWFAGTDDYIYLSLVGSAGCSEKHLLDKPFYNDFERGAVDSYDVTVDEELGEIQLVRIEKRKYWLNDDWYLKYITLKTPHGDYIEFPCYRWITGDVEVVLRDGRAKLARDDQIHILKQHRRKELETRQKQYRWMEWNPGFPLSIDAKCHKDLPRDIQFDSEKGVDFVLNYSKAMENLFINRFMHMFQSSWNDFADFEKIFVKISNTISERVMNHWQEDLMFGYQFLNGCNPVLIRRCTELPEKLPVTTEMVECSLERQLSLEQEVQQGNIFIVDFELLDGIDANKTDPCTLQFLAAPICLLYKNLANKIVPIAIQLNQIPGDENPIFLPSDAKYDWLLAKIWVRSSDFHVHQTITHLLRTHLVSEVFGIAMYRQLPAVHPIFKLLVAHVRFTIAINTKAREQLICECGLFDKANATGGGGHVQMVQRAMKDLTYASLCFPEAIKARGMESKEDIPYYFYRDDGLLVWEAIRTFTAEVVDIYYEGDQVVEEDPELQDFVNDVYVYGMRGRKSSGFPKSVKSREQLSEYLTVVIFTASAQHAAVNFGQYDWCSWIPNAPPTMRAPPPTAKGVVTIEQIVDTLPDRGRSCWHLGAVWALSQFQENELFLGMYPEEHFIEKPVKEAMARFRKNLEAIVSVIAERNKKKQLPYYYLSPDRIPNSVAI
  binding: binds
